Experimental data published in US20240271152A1, “ENHANCING NITROGEN FIXATION WITH FUN” (Aarhus Universitet, published 2024).
No constants are given. Whether binding was seen depends on the method and setting. Some results given as binding are weak or reduced against the parent protein; the word gives no strength. For some assays here: Sequences can lack the tags named with a protein.

Key:
[1] = biological target: FUN sensor domain (residues 244-480) of Lotus japonicus FUN (Lotus japonicus); test: self-association (filamentation) of the purified sensor domain; DLS, SAXS, EM
[2] = biological target: FUN sensor domain (residues 244-480) of Lotus japonicus FUN (Lotus japonicus); test: summary of DLS, SAXS and EM on the sensor domain
[3] = biological target: FUN sensor domain (residues 244-480) of Lotus japonicus FUN (Lotus japonicus); test: dynamic light scattering, ZnCl2 dose-response, self-association
[4] = biological target: FUN sensor domain (residues 244-480) of Lotus japonicus FUN (Lotus japonicus); test: SAXS, self-association with zinc; reversed by EDTA
[5] = biological target: FUN sensor domain (residues 244-480) of Lotus japonicus FUN (Lotus japonicus); test: self-association with zinc; legend to the schematic in FIGS. 3C-3G (DLS, SAXS)
[6] = biological target: FUN sensor domain (residues 244-480) of Lotus japonicus FUN (Lotus japonicus); test: negative stain electron microscopy; filaments disassembled when zinc was removed with EDTA
[7] = biological target: FUN sensor with the zipper domain (residues 178-480), N-terminally tagged with 7xHis and GB1 (Lotus japonicus); test: dynamic light scattering, 100 µM ZnCl2, reversed with 5 mM EDTA; self-association
[8] = biological target: FUN sensor with the zipper domain (residues 178-480), N-terminally tagged with 7xHis and GB1 (Lotus japonicus); test: dynamic light scattering with and without 100 µM ZnCl2; self-association

Measured: binding

B1: FUN sensor domain (residues 244-480) of Lotus japonicus FUN (protein)
chain: GANGASAFDMEYAHWVDEHQRLLTDLRSALNSQMGDNELHLLVDGVMAHYDELFRLKSLGAKADVFHMHSGLWKTPAERCFMWLGGFRSTELLKIVKNHLEPLTEPQLMGIDNLLRCAQQGEDALTQGMEALQQALVDTLSSTSLGPAGAGNVADYMGQMAIAMGKLATLESFLHSADLVKQQTLQQLQRILTTRQMARALLVRNDYISRLRALSSLWLARPRESSVMSSLPPSNIE
not listed: [7] | [8]
binds: all other assays above

B2: FUN sensor with the zipper domain (residues 178-480), N-terminally tagged with 7xHis and GB1 (protein, not shown: small tags and cut ends)
chain: EDQKILRRLAQNREAAKKSRLRKKAYVQQLENSRLKLVQLEQELQRARQQGVFMASPGDQSHLAVGGANGASAFDMEYAHWVDEHQRLLTDLRSALNSQMGDNELHLLVDGVMAHYDELFRLKSLGAKADVFHMHSGLWKTPAERCFMWLGGFRSTELLKIVKNHLEPLTEPQLMGIDNLLRCAQQGEDALTQGMEALQQALVDTLSSTSLGPAGAGNVADYMGQMAIAMGKLATLESFLHSADLVKQQTLQQLQRILTTRQMARALLVRNDYISRLRALSSLWLARPRESSVMSSLPPSNIE
binds: [7] | [8]
